{"sequences": {"note": "Protein sequences, listed by entry. Tags and fused reporters are not part of them.", "UniProt O43516": "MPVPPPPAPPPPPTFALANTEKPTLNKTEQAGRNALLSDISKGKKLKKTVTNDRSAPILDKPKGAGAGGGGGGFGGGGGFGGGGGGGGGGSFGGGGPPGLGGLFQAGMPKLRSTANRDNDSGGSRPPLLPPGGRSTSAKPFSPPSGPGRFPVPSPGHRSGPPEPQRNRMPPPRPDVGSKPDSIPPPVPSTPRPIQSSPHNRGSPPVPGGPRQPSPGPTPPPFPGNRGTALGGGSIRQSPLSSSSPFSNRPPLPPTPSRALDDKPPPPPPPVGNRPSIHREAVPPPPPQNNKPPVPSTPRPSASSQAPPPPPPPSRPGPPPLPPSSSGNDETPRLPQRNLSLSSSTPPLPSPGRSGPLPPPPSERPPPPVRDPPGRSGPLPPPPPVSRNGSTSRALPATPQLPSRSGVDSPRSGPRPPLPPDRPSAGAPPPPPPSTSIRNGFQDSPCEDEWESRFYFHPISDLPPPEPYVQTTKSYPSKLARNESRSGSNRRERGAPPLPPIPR", "UniProt O43707": "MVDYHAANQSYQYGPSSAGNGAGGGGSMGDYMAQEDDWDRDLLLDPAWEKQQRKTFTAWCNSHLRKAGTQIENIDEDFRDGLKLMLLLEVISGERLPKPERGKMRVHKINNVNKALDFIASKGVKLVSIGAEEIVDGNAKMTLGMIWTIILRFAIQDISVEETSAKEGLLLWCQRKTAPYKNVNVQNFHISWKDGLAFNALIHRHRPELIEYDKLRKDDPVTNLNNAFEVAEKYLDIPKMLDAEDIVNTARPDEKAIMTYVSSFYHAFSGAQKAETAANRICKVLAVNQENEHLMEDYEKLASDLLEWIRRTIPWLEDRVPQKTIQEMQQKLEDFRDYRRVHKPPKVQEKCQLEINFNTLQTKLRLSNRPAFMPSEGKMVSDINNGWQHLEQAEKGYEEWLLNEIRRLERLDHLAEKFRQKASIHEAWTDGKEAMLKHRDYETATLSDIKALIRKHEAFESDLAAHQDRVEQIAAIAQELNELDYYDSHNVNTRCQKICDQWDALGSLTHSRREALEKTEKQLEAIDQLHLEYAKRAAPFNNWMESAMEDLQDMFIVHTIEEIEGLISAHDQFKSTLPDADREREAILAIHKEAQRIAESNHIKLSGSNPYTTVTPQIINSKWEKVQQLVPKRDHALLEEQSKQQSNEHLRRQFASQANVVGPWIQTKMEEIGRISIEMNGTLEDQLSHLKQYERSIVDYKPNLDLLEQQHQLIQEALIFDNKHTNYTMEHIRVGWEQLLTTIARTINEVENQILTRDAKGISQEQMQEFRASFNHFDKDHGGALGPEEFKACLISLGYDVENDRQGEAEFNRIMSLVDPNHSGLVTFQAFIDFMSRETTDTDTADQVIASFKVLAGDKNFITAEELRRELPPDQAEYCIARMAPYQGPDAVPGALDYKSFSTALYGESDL"}, "source": "paper PMC12357052", "biological_target": "WAS/WASL interacting protein family member 1 (WIPF1), wild type, overexpressed (WIPF1-OE) (human) (UniProt O43516)", "assay": "co-IP; Lysate of HTR-8/SVneo cells overexpressing WIPF1 (WT or point mutant); IP with rabbit WIPF1 mAb at 4 °C overnight, protein A/G beads; blot with mouse ACTN4 mAb; rabbit or mouse IgG as negative control", "note": "No constants are given. Whether binding was seen depends on the method and setting. In cells and extracts the contact can be indirect. Some entries that bind do so weakly or less than the wild type."}
{"substance": "alpha-actinin 4 (ACTN4) (from UniProt O43707 1-911)", "values": [{"measurement": "binding", "result": "binds"}]}
